Laboratory results: article PMC10940461
No constants are given. Whether binding was seen depends on the method and setting. Binding seen in cells or lysates may run through a third protein. Some results given as binding are weak or reduced against the parent protein; the word gives no strength.

By UniProt entry, the sequences of proteins in these tests, tags left out.
UniProt P20263: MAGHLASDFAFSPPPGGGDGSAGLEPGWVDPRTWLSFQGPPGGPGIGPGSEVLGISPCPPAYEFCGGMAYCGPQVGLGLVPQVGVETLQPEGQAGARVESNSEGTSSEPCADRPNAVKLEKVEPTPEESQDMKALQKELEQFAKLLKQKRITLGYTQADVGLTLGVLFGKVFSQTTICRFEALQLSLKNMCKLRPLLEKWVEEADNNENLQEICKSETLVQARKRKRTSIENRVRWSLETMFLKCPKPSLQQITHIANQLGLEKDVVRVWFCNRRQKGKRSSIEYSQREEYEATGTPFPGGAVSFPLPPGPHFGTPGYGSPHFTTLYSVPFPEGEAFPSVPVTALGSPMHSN

Assays:
[1] = molecular target: Oct4 (endogenous, mouse iPSCs) (mouse (endogenous in mouse iPSCs)) (UniProt P20263); test: proximity ligation; in situ PLA (Duolink kit) on fixed, permeabilised WT iPSCs and RA-induced differentiated cells; endogenous proteins, distances < 40 nm
[2] = molecular target: Oct4 (endogenous, mouse iPSCs) (mouse (endogenous in mouse iPSCs)) (UniProt P20263); test: co-IP; lysates of WT iPSCs, undifferentiated and during RA-induced differentiation (LIF withdrawal, RA), immunoprecipitated with anti-Oct4 antibody and probed with anti-Txnip or anti-Oct4 antibody; Txnip KO iPSCs as control

binding [1]: binds
binding [2]: binds
B1: Txnip (thioredoxin interacting protein; endogenous, mouse iPSCs) (protein, UniProt Q8BG60 1-397)
chain: MVMFKKIKSFEVVFNDPEKVYGSGEKVAGRVIVEVCEVTRVKAVRILACGVAKVLWMQGSQQCKQTLDYLRYEDTLLLEEQPTAGENEMVIMRPGNKYEYKFGFELPQGPLGTSFKGKYGCVDYWVKAFLDRPSQPTQEAKKNFEVMDLVDVNTPDLMAPVSAKKEKKVSCMFIPDGRVSVSARIDRKGFCEGDDISIHADFENTCSRIVVPKAAIVARHTYLANGQTKVFTQKLSSVRGNHIISGTCASWRGKSLRVQKIRPSILGCNILKVEYSLLIYVSVPGSKKVILDLPLVIGSRSGLSSRTSSMASRTSSEMSWIDLNIPDTPEAPPCYMDIIPEDHRLESPTTPLLDDVDDSQDSPIFMYAPEFQFMPPPTYTEVDPCVLNNNNNNNNVQ
